In article PMC7910587 one finds binding data, which are given here for one substance.

Protein sequences, listed by entry. Tags and fused reporters are not part of them.
UniProt P46940: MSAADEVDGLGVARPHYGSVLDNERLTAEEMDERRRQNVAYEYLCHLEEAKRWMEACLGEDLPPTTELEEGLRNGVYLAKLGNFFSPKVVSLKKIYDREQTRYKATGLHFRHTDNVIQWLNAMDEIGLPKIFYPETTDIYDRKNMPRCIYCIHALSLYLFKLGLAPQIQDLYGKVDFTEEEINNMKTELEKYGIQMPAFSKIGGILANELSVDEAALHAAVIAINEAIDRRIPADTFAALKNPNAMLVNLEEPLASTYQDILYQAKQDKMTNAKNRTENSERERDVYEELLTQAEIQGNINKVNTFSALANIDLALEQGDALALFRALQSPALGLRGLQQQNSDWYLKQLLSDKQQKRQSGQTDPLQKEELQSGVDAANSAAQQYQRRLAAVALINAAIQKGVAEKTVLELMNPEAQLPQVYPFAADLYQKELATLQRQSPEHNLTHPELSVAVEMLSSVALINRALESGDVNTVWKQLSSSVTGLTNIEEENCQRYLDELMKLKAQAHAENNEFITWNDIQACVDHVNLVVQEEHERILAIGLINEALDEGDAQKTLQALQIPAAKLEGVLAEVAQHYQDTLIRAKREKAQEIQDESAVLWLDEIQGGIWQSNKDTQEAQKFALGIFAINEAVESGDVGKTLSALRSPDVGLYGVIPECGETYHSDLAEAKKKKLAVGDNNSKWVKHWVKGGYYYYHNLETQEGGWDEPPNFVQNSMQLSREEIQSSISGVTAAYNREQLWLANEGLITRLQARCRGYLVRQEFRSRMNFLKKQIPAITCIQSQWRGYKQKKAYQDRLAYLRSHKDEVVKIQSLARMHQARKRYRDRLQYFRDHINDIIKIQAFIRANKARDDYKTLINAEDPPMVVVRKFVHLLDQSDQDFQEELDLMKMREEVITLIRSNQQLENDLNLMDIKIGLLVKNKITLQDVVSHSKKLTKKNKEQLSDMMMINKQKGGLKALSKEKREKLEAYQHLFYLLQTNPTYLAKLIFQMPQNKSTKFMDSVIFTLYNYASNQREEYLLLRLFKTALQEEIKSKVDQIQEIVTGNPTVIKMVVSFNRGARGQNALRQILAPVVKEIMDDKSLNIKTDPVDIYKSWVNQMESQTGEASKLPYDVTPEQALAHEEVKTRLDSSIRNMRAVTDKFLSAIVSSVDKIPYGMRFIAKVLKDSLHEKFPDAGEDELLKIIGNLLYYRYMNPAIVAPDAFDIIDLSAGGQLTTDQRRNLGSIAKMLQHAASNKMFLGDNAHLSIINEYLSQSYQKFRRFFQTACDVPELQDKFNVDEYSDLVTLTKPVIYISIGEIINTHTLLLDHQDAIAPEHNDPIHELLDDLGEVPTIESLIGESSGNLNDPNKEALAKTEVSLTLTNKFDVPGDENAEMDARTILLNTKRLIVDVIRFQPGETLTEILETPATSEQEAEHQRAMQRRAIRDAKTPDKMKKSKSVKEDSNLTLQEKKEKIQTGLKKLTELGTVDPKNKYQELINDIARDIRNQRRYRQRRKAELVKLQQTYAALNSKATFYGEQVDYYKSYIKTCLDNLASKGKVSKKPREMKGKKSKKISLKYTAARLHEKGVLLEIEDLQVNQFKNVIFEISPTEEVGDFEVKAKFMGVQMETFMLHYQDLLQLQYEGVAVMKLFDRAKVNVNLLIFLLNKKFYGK

The assay addresses CiaD∆MKD-FLAG (Campylobacter jejuni) (UniProt Q0PAA2). Description: co-IP; INT 407 cells infected for 2 h with the C. jejuni ∆ciaD mutant harboring ciaD-FLAG or ciaD∆MKD-FLAG; lysate on anti-FLAG M2 affinity gel; immunoblot for IQGAP1. In general terms: A western blot detects proteins with antibodies after separation by electrophoresis.

No constants are given. Whether binding was seen depends on the method and setting. In cells and extracts the contact can be indirect. A result given as binding can be weak or reduced; the word gives no strength.

On to “IQGAP1 (Ras GTPase-activating-like protein IQGAP1) (from UniProt P46940 1-1657)”, for which the binding result was “binds”.
